The target in this experiment is T1, DDX24^WT, bait of the Co-IP followed by mass spectrometry (human) (UniProt Q9GZR7).
T1 sequence: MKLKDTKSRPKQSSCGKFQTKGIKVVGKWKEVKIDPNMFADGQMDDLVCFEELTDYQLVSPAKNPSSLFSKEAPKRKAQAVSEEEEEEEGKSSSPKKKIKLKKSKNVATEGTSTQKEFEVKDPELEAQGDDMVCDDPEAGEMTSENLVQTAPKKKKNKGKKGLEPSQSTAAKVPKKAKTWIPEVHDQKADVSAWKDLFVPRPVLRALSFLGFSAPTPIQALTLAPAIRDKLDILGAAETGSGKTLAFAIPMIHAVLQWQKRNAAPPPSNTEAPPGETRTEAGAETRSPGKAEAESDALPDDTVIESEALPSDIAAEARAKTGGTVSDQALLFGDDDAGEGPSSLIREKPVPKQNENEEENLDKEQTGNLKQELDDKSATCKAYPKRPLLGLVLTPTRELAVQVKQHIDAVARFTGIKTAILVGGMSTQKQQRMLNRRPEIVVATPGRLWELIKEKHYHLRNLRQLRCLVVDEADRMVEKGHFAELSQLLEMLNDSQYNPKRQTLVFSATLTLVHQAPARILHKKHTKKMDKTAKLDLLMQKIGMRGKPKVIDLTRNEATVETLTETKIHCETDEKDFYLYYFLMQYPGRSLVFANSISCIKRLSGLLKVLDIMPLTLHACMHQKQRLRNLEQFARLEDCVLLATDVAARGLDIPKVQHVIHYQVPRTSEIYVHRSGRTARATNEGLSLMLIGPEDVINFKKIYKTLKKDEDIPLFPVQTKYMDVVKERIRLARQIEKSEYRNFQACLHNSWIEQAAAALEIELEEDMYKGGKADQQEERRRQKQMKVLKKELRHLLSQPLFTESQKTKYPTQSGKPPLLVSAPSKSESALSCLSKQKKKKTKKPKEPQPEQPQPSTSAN
Put plainly: affinity purification with mass spectrometry; Co-IP with anti-DDX24 antibody (Pierce Co-Immunoprecipitation Kit), SDS-PAGE, silver stain, mass spectrometry; DDX24^WT and DDX24^E271K samples; cells not given.

No constants are given. Whether binding was seen depends on the method and setting. Binding seen in cells or lysates may run through a third protein. Here binding means that the protein was enriched with, or labelled near, the bait; the list need not be complete.

B1: FBL (protein, UniProt P22087 1-321)
chain: MKPGFSPRGGGFGGRGGFGDRGGRGGRGGFGGGRGRGGGFRGRGRGGGGGGGGGGGGGRGGGGFHSGGNRGRGRGGKRGNQSGKNVMVEPHRHEGVFICRGKEDALVTKNLVPGESVYGEKRVSISEGDDKIEYRAWNPFRSKLAAAILGGVDQIHIKPGAKVLYLGAASGTTVSHVSDIVGPDGLVYAVEFSHRSGRDLINLAKKRTNIIPVIEDARHPHKYRMLIAMVDVIFADVAQPDQTRIVALNAHTFLRNGGHFVISIKANCIDSTASAEAVFASEVKKMQQENMKPQEQLTLEPYERDHAVVVGVYRPPPKVKN
As to B1, the binding result is on record as “binds”.

Source of the values: paper PMC10496494.
